Test results as given in patent US20130122039A1.
These are yes or no findings as the source states them, for the method shown. Some results given as binding are weak or reduced against the parent protein; the word gives no strength.

The chains behind the UniProt entries cited, without tags or fusion partners. Residues count along the entry.
UniProt P01556, residues 22-124: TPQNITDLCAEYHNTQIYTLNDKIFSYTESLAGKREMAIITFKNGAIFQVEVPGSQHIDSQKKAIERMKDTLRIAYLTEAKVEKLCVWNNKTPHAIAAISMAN

Molecular target: recombinant CT-B secreted by Peru-15(pCTB) (Vibrio cholerae strain C6709) (UniProt P01556)
Assay: SDS-PAGE of concentrated supernate with and without heating

**Q.** With “recombinant CT-B secreted by Peru-15(pCTB) (from UniProt P01556 22-124)” as the substance, how does the binding read?
**A.** binds
